The text below walks through data of publication PMC6571141.

Chains of the proteins cited; added tags and fusions are not shown.
UniProt P01100: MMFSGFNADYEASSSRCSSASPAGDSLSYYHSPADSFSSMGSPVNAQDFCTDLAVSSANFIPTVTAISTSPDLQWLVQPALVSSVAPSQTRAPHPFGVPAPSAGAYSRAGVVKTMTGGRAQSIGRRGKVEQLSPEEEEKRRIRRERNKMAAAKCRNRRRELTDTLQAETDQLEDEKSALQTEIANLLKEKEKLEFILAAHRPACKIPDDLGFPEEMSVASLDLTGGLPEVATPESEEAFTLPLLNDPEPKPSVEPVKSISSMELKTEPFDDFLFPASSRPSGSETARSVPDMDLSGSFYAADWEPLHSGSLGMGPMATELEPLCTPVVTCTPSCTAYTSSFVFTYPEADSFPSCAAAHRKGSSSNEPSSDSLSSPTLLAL
UniProt Q5VTD9: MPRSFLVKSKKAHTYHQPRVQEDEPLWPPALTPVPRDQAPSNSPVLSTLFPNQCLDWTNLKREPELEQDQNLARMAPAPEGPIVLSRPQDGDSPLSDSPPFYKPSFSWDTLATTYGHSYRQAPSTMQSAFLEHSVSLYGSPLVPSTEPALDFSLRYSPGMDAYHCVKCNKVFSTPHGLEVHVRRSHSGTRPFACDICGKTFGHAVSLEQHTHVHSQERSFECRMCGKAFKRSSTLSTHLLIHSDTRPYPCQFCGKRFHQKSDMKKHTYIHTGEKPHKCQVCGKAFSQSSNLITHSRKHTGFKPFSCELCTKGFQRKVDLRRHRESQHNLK
UniProt P23769: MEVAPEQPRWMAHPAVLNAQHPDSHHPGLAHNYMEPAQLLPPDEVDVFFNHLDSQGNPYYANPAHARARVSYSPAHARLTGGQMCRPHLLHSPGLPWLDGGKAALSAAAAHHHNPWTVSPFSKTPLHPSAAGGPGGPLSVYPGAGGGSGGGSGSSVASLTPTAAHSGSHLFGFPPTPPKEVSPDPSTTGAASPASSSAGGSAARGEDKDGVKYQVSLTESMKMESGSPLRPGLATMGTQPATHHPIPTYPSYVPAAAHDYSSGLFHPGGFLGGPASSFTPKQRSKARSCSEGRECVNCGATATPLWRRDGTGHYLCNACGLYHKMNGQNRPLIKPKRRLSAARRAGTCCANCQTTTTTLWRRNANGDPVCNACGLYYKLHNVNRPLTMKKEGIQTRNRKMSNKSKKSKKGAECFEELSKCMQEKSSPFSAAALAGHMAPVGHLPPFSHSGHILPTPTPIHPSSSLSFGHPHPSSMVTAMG

These are yes or no findings as the source states them, for the method shown. Binding seen in cells or lysates may run through a third protein. Some results given as binding are weak or reduced against the parent protein; the word gives no strength.

What all share (experiment): co-IP; nuclear extracts of HDFs 48 hr after Dox induction of GATA2, GFI1B and FOS together; 5 ug of each antibody; immune complexes washed four times with lysis buffer; control IP with rabbit IgG; western blot
Background: In western blotting, separated proteins are transferred to a membrane and probed.

One assay has as its target FOS (human) (UniProt P01100).
Another assay has as its target HA-tagged GFI1B (human) (UniProt Q5VTD9).
Assay [1] deals with 3xFLAG-tagged GATA2 (human) (UniProt P23769).

In the case of “3xFLAG-tagged GATA2 (from UniProt P23769 1-480)”, the binding entry in the assay with FOS (human) and in the assay with HA-tagged GFI1B (human) was “binds” throughout. As to FOS (from UniProt P01100 1-380), in assay [1], the binding entry is “binds”.
